No constants are given. Whether binding was seen depends on the method and setting. Binding seen in cells or lysates may run through a third protein. These calls come from enrichment with a bait or labelling near it, and not all partners need be listed. For some assays here: A no says only that the protein was not detected with the bait. Sequences can lack the tags named with a protein.

Assay [1] has as its target T1, HA-VPS39 (human (cDNA from HeLa Kyoto cells)) (UniProt Q96JC1).
T1 sequence: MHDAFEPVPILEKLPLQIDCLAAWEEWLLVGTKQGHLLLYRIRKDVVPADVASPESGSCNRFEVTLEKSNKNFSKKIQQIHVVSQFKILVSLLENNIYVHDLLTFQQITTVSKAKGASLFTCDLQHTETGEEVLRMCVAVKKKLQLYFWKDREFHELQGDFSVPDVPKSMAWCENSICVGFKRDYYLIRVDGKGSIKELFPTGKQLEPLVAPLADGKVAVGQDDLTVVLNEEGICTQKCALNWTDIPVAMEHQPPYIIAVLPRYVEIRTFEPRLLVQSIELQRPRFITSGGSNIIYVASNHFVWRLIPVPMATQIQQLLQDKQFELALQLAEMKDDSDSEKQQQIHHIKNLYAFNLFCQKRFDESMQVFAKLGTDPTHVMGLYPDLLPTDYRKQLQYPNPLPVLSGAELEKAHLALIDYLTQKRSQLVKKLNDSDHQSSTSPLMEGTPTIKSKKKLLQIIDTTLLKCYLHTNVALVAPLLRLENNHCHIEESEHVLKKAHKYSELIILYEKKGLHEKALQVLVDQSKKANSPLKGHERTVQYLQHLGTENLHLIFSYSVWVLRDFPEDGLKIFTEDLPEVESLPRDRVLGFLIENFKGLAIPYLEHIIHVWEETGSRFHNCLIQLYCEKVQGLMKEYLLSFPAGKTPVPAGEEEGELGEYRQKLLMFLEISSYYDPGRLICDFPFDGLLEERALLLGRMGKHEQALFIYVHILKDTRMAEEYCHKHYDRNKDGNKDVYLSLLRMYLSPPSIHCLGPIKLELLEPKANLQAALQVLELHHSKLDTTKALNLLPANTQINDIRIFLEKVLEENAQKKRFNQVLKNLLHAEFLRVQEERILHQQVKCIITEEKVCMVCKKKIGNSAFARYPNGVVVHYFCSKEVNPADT
In words: affinity purification with mass spectrometry; WT HeLa cells with single expression of Myc- or HA-tagged bait; IP with anti-Myc or anti-HA antibodies and magnetic beads; eluate resolved by SDS-PAGE, in-gel trypsin digestion, LC-MS/MS (MASCOT, Scaffold 5); high probability threshold.

In assay [2] the target is T2, Myc-VPS8 (human (cDNA from HeLa Kyoto cells)) (UniProt Q8N3P4).
T2 sequence: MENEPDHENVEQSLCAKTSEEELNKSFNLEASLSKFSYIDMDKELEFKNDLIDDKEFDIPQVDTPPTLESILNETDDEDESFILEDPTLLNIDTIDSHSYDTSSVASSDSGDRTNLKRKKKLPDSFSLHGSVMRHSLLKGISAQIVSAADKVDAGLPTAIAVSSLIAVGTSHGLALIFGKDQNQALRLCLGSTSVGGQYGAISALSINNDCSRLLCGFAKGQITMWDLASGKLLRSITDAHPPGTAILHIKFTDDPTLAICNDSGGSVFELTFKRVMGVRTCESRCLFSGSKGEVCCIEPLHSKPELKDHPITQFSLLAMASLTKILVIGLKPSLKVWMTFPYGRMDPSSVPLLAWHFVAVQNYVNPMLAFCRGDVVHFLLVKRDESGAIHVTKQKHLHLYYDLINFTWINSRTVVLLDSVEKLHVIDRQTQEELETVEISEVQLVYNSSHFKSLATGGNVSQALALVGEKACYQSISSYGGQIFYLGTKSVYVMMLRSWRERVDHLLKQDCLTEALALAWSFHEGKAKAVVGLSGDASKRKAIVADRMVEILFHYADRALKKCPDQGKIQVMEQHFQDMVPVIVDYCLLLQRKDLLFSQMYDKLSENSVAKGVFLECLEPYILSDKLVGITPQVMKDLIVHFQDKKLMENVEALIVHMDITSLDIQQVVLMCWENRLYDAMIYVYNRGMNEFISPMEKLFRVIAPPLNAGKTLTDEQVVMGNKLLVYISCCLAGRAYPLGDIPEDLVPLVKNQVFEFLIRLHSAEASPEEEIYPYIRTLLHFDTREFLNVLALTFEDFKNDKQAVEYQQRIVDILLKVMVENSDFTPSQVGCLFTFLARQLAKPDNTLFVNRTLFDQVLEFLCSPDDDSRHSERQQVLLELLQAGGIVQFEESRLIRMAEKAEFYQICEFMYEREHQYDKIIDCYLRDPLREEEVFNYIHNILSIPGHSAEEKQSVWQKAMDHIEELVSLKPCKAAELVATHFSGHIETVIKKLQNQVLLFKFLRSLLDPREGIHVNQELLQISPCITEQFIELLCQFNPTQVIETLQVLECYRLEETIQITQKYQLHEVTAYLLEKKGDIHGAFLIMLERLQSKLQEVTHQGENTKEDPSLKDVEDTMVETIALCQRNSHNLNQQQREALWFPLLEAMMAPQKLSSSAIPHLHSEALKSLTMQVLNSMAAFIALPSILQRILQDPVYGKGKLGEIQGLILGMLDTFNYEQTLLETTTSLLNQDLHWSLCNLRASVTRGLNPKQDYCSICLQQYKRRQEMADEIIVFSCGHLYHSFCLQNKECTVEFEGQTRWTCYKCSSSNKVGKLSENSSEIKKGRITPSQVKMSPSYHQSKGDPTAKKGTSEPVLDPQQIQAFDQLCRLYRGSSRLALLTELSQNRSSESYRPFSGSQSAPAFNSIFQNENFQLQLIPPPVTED
Described as above.

B1: endogenous VPS3 (protein, UniProt Q8WUH2 1-860)
chain: MMSIKAFTLVSAVERELLMGDKERVNIECVECCGRDLYVGTNDCFVYHFLLEERPVPAGPATFTATKQLQRHLGFKKPVNELRAASALNRLLVLCDNSISLVNMLNLEPVPSGARIKGAATFALNENPVSGDPFCVEVCIISVKRRTIQMFLVYEDRVQIVKEVSTAEQPLAVAVDGHFLCLALTTQYIIHNYSTGVSQDLFPYCSEERPPIVKRIGRQEFLLAGPGGLGMFATVAGISQRAPVHWSENVIGAAVSFPYVIALDDEFITVHSMLDQQQKQTLPFKEGHILQDFEGRVIVATSKGVYILVPLPLEKQIQDLLASRRVEEALVLAKGARRNIPKEKFQVMYRRILQQAGFIQFAQLQFLEAKELFRSGQLDVRELISLYPFLLPTSSSFTRSHPPLHEYADLNQLTQGDQEKMAKCKRFLMSYLNEVRSTEVANGYKEDIDTALLKLYAEADHDSLLDLLVTENFCLLTDSAAWLEKHKKYFALGLLYHYNNQDAAAVQLWVNIVNGDVQDSTRSDLYEYIVDFLTYCLDEELVWAYADWVLQKSEEVGVQVFTKRPLDEQQKNSFNPDDIINCLKKYPKALVKYLEHLVIDKRLQKEEYHTHLAVLYLEEVLLQRASASGKGAEATETQAKLRRLLQKSDLYRVHFLLERLQGAGLPMESAILHGKLGEHEKALHILVHELQDFAAAEDYCLWCSEGRDPPHRQQLFHTLLAIYLHAGPTAHELAVAAVDLLNRHATEFDAAQVLQMLPDTWSVQLLCPFLMGAMRDSIHARRTMQVALGLARSENLIYTYDKMKLKGSSIQLSDKKLCQICQNPFCEPVFVRYPNGGLVHTHCAASRHTNPSSSSPGTRT
With B1, the binding result in assay [1] is on record as “no binding”; in assay [2], “binds”.
